# Data: PubChem BioAssay AID540303 (National Center for Advancing Translational Sciences (NCATS), 2011)
# Hit rate of the full screen: of about 330,000 compounds, about 1,000 (0.3%) were called active. The shares of active, inactive and inconclusive entries below differ from those in the screen. Calls follow the shape of the dose curve; as a rule, active = well fitted inhibition curve with a large enough effect; inconclusive = small, poorly fitted or top-dose-only effect; inactive = no such curve, though single readings can be large or run the other way; tested in mouse RAW 264.7 cells. Potencies beside an inconclusive call are fits to weak or partial responses and may not hold up.
# Experiment: qHTS for Inhibitors of Cell Surface uPA Generation; also: nearly all actives have a fitted effect of over 55% in size
# Details: cell surface uPA generation assay; series mostly up to 38.3 µM; activity change, negative = inhibition: at the top concentration
# Procedure, shortened: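 RAW 264.7 cells, 4000/well, given compound (1:5 dilutions, up to 38.3 uM final) and incubated 24 h at 37 C. Blocked uPA-dependent LF entry keeps ATP high; ATPlite luminescence read, 5 s exposure.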
# % is scaled to controls: 0 for no effect and ±100 for the full control effect; potency is read from the fitted curve at half-maximal effect.
SMILES,Potency,"activity change, negative = inhibition"
Cc1ccc(NC(=O)c2ccc3nsnc3c2)c(Cl)c1,"inconclusive: 2.82 µM [inhibitor, single point]",–
COc1ccc(NC(=O)c2cc(-c3ccc(C)o3)nc3ccccc23)c(OC)c1,"inconclusive: 5.01 µM [inhibitor, partial curve]",–
O=C(O)c1cc(-c2ccc(-c3ccc(F)cc3)o2)nc2ccccc12,"inconclusive: 2.51 µM [inhibitor, full curve]",–
COc1ccc(CN2CSC(=S)N(Cc3ccc(OC)cc3)C2)cc1,"inconclusive: 11.2 µM [inhibitor, single point]",–
Cc1ccc(SSc2cc(C)ccc2N)c(N)c1,"inconclusive: 7.08 µM [inhibitor, single point]",–
COc1ccc(C(=O)Nc2ccc(OC)c([N+](=O)[O-])c2)cc1Br,"inconclusive: 2.51 µM [inhibitor, full curve, poor fit]",–
Cc1cc(Br)cnc1NC(=S)Nc1ccc(F)cc1F,–,inactive: -5.23%
COc1cc(/C=C(\C#N)c2ccccn2)cc(OC)c1O,"inconclusive: 11.2 µM [inhibitor, partial curve, poor fit]",–
COc1ccc(C(=O)Nc2ccc(N3CCCCCC3)cc2)cc1S(=O)(=O)N1CCOCC1,–,inactive: -57.4%
Cc1sc2ncnc(N3CCC(C(=O)NNC(=O)COc4ccc(Br)cc4)CC3)c2c1C,–,inactive: -8.26%
CCC1Oc2ccc(C)cc2N(CC(=O)NCc2cccc(OC)c2)C1=O (configuration not stated),–,inactive: 0.573%
COc1ccc(OC)c(NC(=O)c2cccc(N3C(=O)C4C5C=CC(C6CC56)C4C3=O)c2)c1 (configuration not stated),"inconclusive: 12.6 µM [inhibitor, single point]",–
CC(C)(C)NCC(O)COc1ccccc1C1CCCC1 (configuration not stated),"inconclusive: 7.08 µM [inhibitor, single point]",–
CC(=O)c1cccc(NC(=O)CCN2C(=O)C3CC=CCC3C2=O)c1 (configuration not stated),"inconclusive: 3.16 µM [inhibitor, partial curve, poor fit]",–
N#Cc1c(N2CCN(C(=O)c3ccco3)CC2)nc(-c2ccccc2)c2c1CCCC2,"inconclusive: 7.94 µM [inhibitor, single point]",–
COc1ccc(CCNC(=O)c2ccc3nc(N4CCCCC4)sc3c2)cc1OC,"inconclusive: 11.2 µM [inhibitor, single point]",–
COc1ccc(C2=NS(=O)(=O)N(C)C(C(=O)N3CCc4ccccc4C3)=C2)cc1OC,"inconclusive: 11.2 µM [inhibitor, single point]",–
O=C(Nc1ccc(Br)cc1)Nc1ccccc1Cl,"inconclusive: 11.2 µM [inhibitor, single point]",–
CCC(C)CCN1C(N(C)C)=NC[C@@H]1CC(C)C (some centres not stated),"inconclusive: 3.98 µM [inhibitor, partial curve]",–
CCOC(=O)N1CCN(S(=O)(=O)c2ccc(C)cc2)CC1,–,inactive: 1.68%
CC(C)C[C@H]1CN=C(N(C)C)N1CC1CCCC1,"inconclusive: 5.01 µM [inhibitor, partial curve, poor fit]",–
CC(C)CCNC(=O)CN(C(=O)CCC(=O)Nc1ccccn1)c1ccc(F)c(Cl)c1,"inconclusive: 2.82 µM [inhibitor, full curve]",–
NC(=O)CC(NC(=O)c1ccc(Br)cc1)c1ccc(N2CCCCCCC2)c([N+](=O)[O-])c1 (configuration not stated),"inconclusive: 8.91 µM [inhibitor, single point]",–

# Three entries already listed, ordered by count of non-hydrogen atoms, largest number first:
SMILES,Potency,"activity change, negative = inhibition"
COc1ccc(C(=O)Nc2ccc(OC)c([N+](=O)[O-])c2)cc1Br,"inconclusive: 2.51 µM [inhibitor, full curve, poor fit]",–
CCOC(=O)N1CCN(S(=O)(=O)c2ccc(C)cc2)CC1,–,inactive: 1.68%
O=C(Nc1ccc(Br)cc1)Nc1ccccc1Cl,"inconclusive: 11.2 µM [inhibitor, single point]",–

# Additional records:

SMILES,Potency,"activity change, negative = inhibition"
CC1(c2ccccc2)NC(=O)N(CC(=O)N2CCN(S(=O)(=O)c3cccc(C(F)(F)F)c3)CC2)C1=O (configuration not stated),"inconclusive: 4.47 µM [inhibitor, partial curve, poor fit]",–
O=C(COC(=O)c1ccc2ccccc2n1)NCc1ccccc1,–,inactive: -13%
COC(=O)c1cc(S(=O)(=O)N2CCN(c3ccccc3F)CC2)c[nH]1,–,inactive: -9.13%
CCc1ccc(OC(C)C(=O)Nc2ccccc2C(=O)N2CCOCC2)cc1 (configuration not stated),"inconclusive: 3.16 µM [inhibitor, partial curve, poor fit]",–
O=C(OCc1ccccc1)/C(=C/c1cccc(Br)c1)NC(=O)c1ccco1,–,inactive: -13.4%
COCCNC(=O)c1onc(CSc2cccc(OC)c2)c1C(=O)NCCOC,–,inactive: 0.897%
O=C(O/N=C\c1ccc(N2CCOCC2)c([N+](=O)[O-])c1)c1ccccc1Cl,–,inactive: 3.45%
Cn1nccc1C(=O)NC1CCCc2c1cnn2-c1ccccc1F (configuration not stated),"inconclusive: 3.16 µM [inhibitor, partial curve, poor fit]",–
C=C1C(=O)C=C2CN(C(=O)c3ccccc3)[C@@](Cc3ccc(F)cc3)(C(=O)OC)[C@@H]12,"inconclusive: 1.41 µM [inhibitor, partial curve, poor fit]",–
O=C(C1=C[C@H](c2ccc3c(c2)OCO3)C[C@H](OCc2ccc(CO)cc2)O1)N1CCN(Cc2ccc3c(c2)OCO3)CC1,–,inactive: 5.84%
CC(=O)c1ccc(NC(=O)C2CCN(S(=O)(=O)c3cccs3)CC2)cc1,–,inactive: -2.22%
CN1CCN(c2nc3c(c(=O)[nH]c(=O)n3C)n2Cc2cccc(Br)c2)CC1,–,inactive: -11.1%
O=C(NC(=S)Nc1ccc2c(c1)OCO2)c1ccccc1,–,inactive: -3.88%
CSCC(=O)N1CCCC(CO)(CCCc2ccccc2)C1 (configuration not stated),–,inactive: -0.327%
Cc1cc(C)cc(SCc2noc(C(=O)NCCN(C)C)c2C(=O)NCCN(C)C)c1,"inconclusive: 10 µM [inhibitor, single point]",–
COc1cccc(C(=O)NOCc2ccccc2)c1OC,"inconclusive: 1.12 µM [inhibitor, full curve, poor fit]",–
COc1cc(C(=O)Nc2ccc3nc(N4CCN(C)CC4)cc(C)c3c2)cc(OC)c1OC,"inconclusive: 12.6 µM [inhibitor, single point]",–
Cc1ccccc1CN1CCC(n2nccc2NC(=O)CCOc2ccccc2)CC1,"inconclusive: 2.82 µM [inhibitor, partial curve, poor fit]",–
Cc1ccccc1Nc1n[nH]c(C)c1[N+](=O)[O-],–,inactive: 4.09%
COc1ccc(-c2nc3cc(C)ccn3c2NC2CCCCC2)cc1SC1CCCCC1,"inconclusive: 28.2 µM [inhibitor, single point]",–
Cc1ccc(C(OCC(O)CNCc2ccc(F)cc2)c2ccccc2)cc1 (configuration not stated),–,inactive: 11.2%
COc1cc(OC)cc(-c2nnc(NC(=O)Cc3ccc(F)cc3)o2)c1,"inconclusive: 11.2 µM [inhibitor, single point]",–
C=C(C)C(=O)Nc1cccc(C2=NOC3(C2)C[C@@H](C(N)=O)N(C(=O)c2ccc(Cl)cc2)C3)c1 (some centres not stated),–,inactive: 3.02%

SMILES,Potency,"activity change, negative = inhibition"
Cc1ccc(S(=O)(=O)CC(CN2CCOCC2)N2CCOCC2)cc1 (configuration not stated),–,inactive: 3.37%
COc1cccc(NC(=O)/C=C/c2ccc(S(=O)(=O)N3CCOCC3)cc2)c1,–,inactive: -16.4%
CCCCCc1ccc(-c2cn(CN3C(=O)c4ccccc4C3=O)nn2)cc1,–,inactive: -3.44%
C[C@H](NC(=O)c1nc[nH]c1C(=O)NCCCCCNC(=O)OC(C)(C)C)C(=O)OC(C)(C)C,–,inactive: 12.5%
CC1Cc2ccccc2N1C(=O)COC(=O)c1ccc(Cl)nc1 (configuration not stated),–,inactive: 2.19%
C[C@H](CO)N1C[C@H](C)[C@@H](CN(C)Cc2ccc(Oc3ccccc3)cc2)Oc2c(NC(=O)c3ccncc3)cccc2C1=O,"inconclusive: 12.6 µM [inhibitor, single point]",–
COCCN(Cc1cc2cc(C)ccc2n2nnnc12)C(=S)Nc1cccc(C)c1,"inconclusive: 3.16 µM [inhibitor, full curve, poor fit]",–
O=C(c1ccc(S(=O)(=O)N2CCCC2)cc1)N1CCN(c2cccc(Cl)c2)CC1,"inconclusive: 5.62 µM [inhibitor, partial curve, poor fit]",–
O=C(O)c1ccc(Nc2nc(-c3ccccc3)c3ccccc3n2)cc1,–,inactive: -6.38%
O=C(COC(=O)c1c2c(nc3ccccc13)/C(=C\c1ccco1)CC2)NC1CCCC1,"inconclusive: 7.94 µM [inhibitor, single point]",–
Cn1ccsc1=NC(=O)c1ccc(S(C)(=O)=O)c([N+](=O)[O-])c1,"inconclusive: 2.24 µM [inhibitor, full curve]",–
CS(=O)(=O)N(CC(=O)NCc1ccccc1)c1ccc(Cl)cc1,"inconclusive: 1.12 µM [inhibitor, partial curve, poor fit]",–
CC(=O)N1CCN(c2ccc(NCc3ccc(Br)o3)cc2)CC1,"inconclusive: 5.62 µM [inhibitor, partial curve]",–
Cc1c(NC(=O)c2cccc(NC(=O)COc3ccc(C#N)cc3)c2)c(=O)n(-c2ccccc2)n1C,–,inactive: -1.65%
C[C@@H]1CN([C@H](C)CO)C(=O)c2cc(NS(=O)(=O)c3ccc(F)cc3)ccc2O[C@@H]1CN(C)Cc1ccc(Cl)c(Cl)c1,"inconclusive: 28.2 µM [inhibitor, single point]",–
Cc1ccc(-c2nc(CS(=O)CC(=O)NCc3ccc4c(c3)OCO4)c(C)o2)cc1 (configuration not stated),"inconclusive: 7.94 µM [inhibitor, partial curve, poor fit]",–
COc1ccc(NC(=O)N2CCNC(=O)C2CC(=O)Nc2ccc(F)cc2)cc1 (configuration not stated),"inconclusive: 3.16 µM [inhibitor, partial curve, poor fit]",–
CCOc1ccccc1C1C(C#N)=C(N)N(N(C)C)C2=C1C(=O)CCC2 (configuration not stated),–,inactive: 0.722%
O=C(Nc1ncc([N+](=O)[O-])s1)c1cccs1,"inconclusive: 11.2 µM [inhibitor, single point]",–
CCN(CC)CCCN=Cc1c(O)n(-c2c(C)cccc2C)c(=O)c2ccccc12,"inconclusive: 10 µM [inhibitor, partial curve, poor fit]",–
Cc1ccc(C(=O)/C=C/NNC(=O)c2ccccc2O)cc1,"inconclusive: 28.2 µM [inhibitor, single point]",–

# By substructure: the entries above containing an aryl thioether with sulfur outside any ring (3)
SMILES,Potency,"activity change, negative = inhibition"
COCCNC(=O)c1onc(CSc2cccc(OC)c2)c1C(=O)NCCOC,–,inactive: 0.897%
Cc1cc(C)cc(SCc2noc(C(=O)NCCN(C)C)c2C(=O)NCCN(C)C)c1,"inconclusive: 10 µM [inhibitor, single point]",–
COc1ccc(-c2nc3cc(C)ccn3c2NC2CCCCC2)cc1SC1CCCCC1,"inconclusive: 28.2 µM [inhibitor, single point]",–
